This passage reports binding results from doi:10.1101/2025.10.07.680213.

Protein sequences, listed by entry. Tags and fused reporters are not part of them.
UniProt P14713: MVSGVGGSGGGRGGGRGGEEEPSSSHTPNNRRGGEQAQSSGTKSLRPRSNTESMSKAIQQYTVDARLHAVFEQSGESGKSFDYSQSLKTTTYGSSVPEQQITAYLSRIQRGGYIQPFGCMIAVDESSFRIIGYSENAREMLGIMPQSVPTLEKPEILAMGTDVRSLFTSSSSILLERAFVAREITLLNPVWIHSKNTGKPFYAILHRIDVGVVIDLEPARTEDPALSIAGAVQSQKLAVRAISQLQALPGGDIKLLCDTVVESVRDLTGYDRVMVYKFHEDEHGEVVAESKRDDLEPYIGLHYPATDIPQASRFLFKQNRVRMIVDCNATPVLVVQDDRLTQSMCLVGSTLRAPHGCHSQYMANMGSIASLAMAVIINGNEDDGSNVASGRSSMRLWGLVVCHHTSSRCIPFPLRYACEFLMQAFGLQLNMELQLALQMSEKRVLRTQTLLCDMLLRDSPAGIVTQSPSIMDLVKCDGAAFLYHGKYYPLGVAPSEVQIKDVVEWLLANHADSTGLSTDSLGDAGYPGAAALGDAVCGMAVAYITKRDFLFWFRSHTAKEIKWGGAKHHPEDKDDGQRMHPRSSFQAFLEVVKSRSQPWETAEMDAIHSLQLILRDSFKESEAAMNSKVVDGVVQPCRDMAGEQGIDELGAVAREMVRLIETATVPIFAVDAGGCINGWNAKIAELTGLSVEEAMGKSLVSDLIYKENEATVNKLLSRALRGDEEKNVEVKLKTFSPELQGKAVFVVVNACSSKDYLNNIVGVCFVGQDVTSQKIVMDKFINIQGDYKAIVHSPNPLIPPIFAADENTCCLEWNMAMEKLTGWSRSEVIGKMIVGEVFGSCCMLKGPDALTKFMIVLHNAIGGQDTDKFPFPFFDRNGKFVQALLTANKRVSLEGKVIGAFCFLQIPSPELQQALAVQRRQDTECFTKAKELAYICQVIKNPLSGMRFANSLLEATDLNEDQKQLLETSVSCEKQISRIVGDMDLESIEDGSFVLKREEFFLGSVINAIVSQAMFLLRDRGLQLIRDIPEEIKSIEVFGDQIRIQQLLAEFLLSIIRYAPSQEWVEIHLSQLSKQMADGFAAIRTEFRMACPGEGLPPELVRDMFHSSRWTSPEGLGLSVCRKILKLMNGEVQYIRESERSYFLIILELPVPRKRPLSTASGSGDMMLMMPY

Assay [1] has as its target T1, p35S::PIF7-lgbitnLUC (Arabidopsis thaliana) (UniProt Q570R7).
T1 sequence: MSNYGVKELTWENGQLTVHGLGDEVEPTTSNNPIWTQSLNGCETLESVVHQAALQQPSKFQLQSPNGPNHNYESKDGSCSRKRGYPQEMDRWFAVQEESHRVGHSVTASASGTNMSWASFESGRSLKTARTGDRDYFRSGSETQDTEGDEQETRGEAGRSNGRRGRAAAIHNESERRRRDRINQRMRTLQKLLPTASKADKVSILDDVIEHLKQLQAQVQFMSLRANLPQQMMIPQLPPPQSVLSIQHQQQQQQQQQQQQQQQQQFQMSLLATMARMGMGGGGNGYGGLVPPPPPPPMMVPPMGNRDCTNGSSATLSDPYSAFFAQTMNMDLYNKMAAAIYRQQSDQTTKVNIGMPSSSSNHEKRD
Put plainly: split reporter.

In assay [2] the target is T2, p35S::PIF7-nYFP (PHYTOCHROME … FACTOR 7 fused to nYFP) (Arabidopsis thaliana) (UniProt Q570R7).
T2 sequence: T1 sequence
The assay is described as follows: split reporter.

For assay [3], the target named is T3, p35S::PIF7-FLASH (9×Myc-6×His-3×FLAG) (Arabidopsis thaliana) (UniProt Q570R7).
T3 sequence: T1 sequence
Put plainly: co-IP.

Assay [4] addresses T1, p35S::PIF7-lgbitnLUC (Arabidopsis thaliana). Put plainly: split reporter. This is another data set of the same source.

Where two headings read alike, the source gives them in different places. No constants are given. Whether binding was seen depends on the method and setting. In cells and extracts the contact can be indirect. Some results given as binding are weak or reduced against the parent protein; the word gives no strength. Sequences can lack the tags named with a protein.

With “p35S::PHYB-smbitnLUC (from UniProt P14713 1-1172)”, in assay [1], the binding result is “binds”.

B1: p35S::PHYA-cYFP (phytochrome A fused to cYFP) (protein, UniProt P14712 1-1122)
chain: MSGSRPTQSSEGSRRSRHSARIIAQTTVDAKLHADFEESGSSFDYSTSVRVTGPVVENQPPRSDKVTTTYLHHIQKGKLIQPFGCLLALDEKTFKVIAYSENASELLTMASHAVPSVGEHPVLGIGTDIRSLFTAPSASALQKALGFGDVSLLNPILVHCRTSAKPFYAIIHRVTGSIIIDFEPVKPYEVPMTAAGALQSYKLAAKAITRLQSLPSGSMERLCDTMVQEVFELTGYDRVMAYKFHEDDHGEVVSEVTKPGLEPYLGLHYPATDIPQAARFLFMKNKVRMIVDCNAKHARVLQDEKLSFDLTLCGSTLRAPHSCHLQYMANMDSIASLVMAVVVNEEDGEGDAPDATTQPQKRKRLWGLVVCHNTTPRFVPFPLRYACEFLAQVFAIHVNKEVELDNQMVEKNILRTQTLLCDMLMRDAPLGIVSQSPNIMDLVKCDGAALLYKDKIWKLGTTPSEFHLQEIASWLCEYHMDSTGLSTDSLHDAGFPRALSLGDSVCGMAAVRISSKDMIFWFRSHTAGEVRWGGAKHDPDDRDDARRMHPRSSFKAFLEVVKTRSLPWKDYEMDAIHSLQLILRNAFKDSETTDVNTKVIYSKLNDLKIDGIQELEAVTSEMVRLIETATVPILAVDSDGLVNGWNTKIAELTGLSVDEAIGKHFLTLVEDSSVEIVKRMLENALEGTEEQNVQFEIKTHLSRADAGPISLVVNACASRDLHENVVGVCFVAHDLTGQKTVMDKFTRIEGDYKAIIQNPNPLIPPIFGTDEFGWCTEWNPAMSKLTGLKREEVIDKMLLGEVFGTQKSCCRLKNQEAFVNLGIVLNNAVTSQDPEKVSFAFFTRGGKYVECLLCVSKKLDREGVVTGVFCFLQLASHELQQALHVQRLAERTAVKRLKALAYIKRQIRNPLSGIMFTRKMIEGTELGPEQRRILQTSALCQKQLSKILDDSDLESIIEGCLDLEMKEFTLNEVLTASTSQVMMKSNGKSVRITNETGEEVMSDTLYGDSIRLQQVLADFMLMAVNFTPSGGQLTVSASLRKDQLGRSVHLANLEIRLTHTGAGIPEFLLNQMFGTEEDVSEEGLSLMVSRKLVKLMNGDVQYLRQAGKSSFIITAELAAANK
For B1, in assay [2], the binding result is on record as “binds”.

B2: native phytochrome A (phyA) (protein, UniProt P14712 1-1122)
chain: B1 chain
As to B2, the binding entry in assay [3] was “binds”.

B3: p35S::PHYA-smbitnLUC (protein, UniProt P14712 1-1122)
chain: B1 chain
Consider B3, for which, in assay [4], the binding entry is given as “binds”.
